Reference: PubChem BioAssay AID1259424 (University of Nebraska Medical Center, 2018)

Test: 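Rank knockdowns across the genome by resemblance to the KSR1 depletion profile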 (primary screen)
Cells: human HCT116 colon cancer cells
Knock-down reagent: siRNA pool against human genes, 50 nM
Measured: 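Six signature mRNAs by branched-DNA multiplex assay, scaled to two housekeeping genes and non-targeting median, log2; matched to mean KSR1 knockdown profile by Pearson correlation and euclidean distance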
Reading the numbers: mean correlation with KSR1 profile and KSR1 correlation: higher = expression change more like KSR1 knockdown; mean distance from KSR1 profile: higher = expression change less like KSR1 knockdown
Here is a random part of about 14,000 deposited reagents. 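Higher correlation or smaller distance means closer resemblance to KSR1 loss; control wells, including KSR1 knockdowns, recur on many plates.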 Reagent sequences are not shown. The record does not give: the time to read-out.

| Gene | mean correlation with KSR1 profile | mean distance from KSR1 profile | KSR1 correlation, replicate 1 | KSR1 correlation, replicate 2 | KSR1 correlation, replicate 3 |
| --- | --- | --- | --- | --- | --- |
| KCNH2 (potassium voltage-gated channel subfamily H member 2) | 0.111 | 1.75 | 0.0872 | -0.193 | 0.314 |
| ISOC2 (isochorismatase domain containing 2) | 0.446 | 2 | 0.594 | 0.618 | 0.184 |
| GCA (grancalcin) | 0.00582 | 2.17 | 0.157 | -0.125 | -0.0088 |
| GCC2-AS1 (GCC2 antisense RNA 1) | 0.665 | 2.56 | 0.517 | 0.564 | 0.787 |
| PPP1R12C (protein phosphatase 1 regulatory subunit 12C) | 0.468 | 1.6 | 0.0886 | 0.54 | 0.632 |
| PPEF1 (protein phosphatase with EF-hand domain 1) | 0.49 | 1.87 | 0.223 | 0.379 | 0.597 |
| MGST1 (microsomal glutathione S-transferase 1) | 0.513 | 1.86 | 0.568 | 0.401 | 0.483 |
| SERTAD2 (SERTA domain containing 2) | 0.529 | 1.38 | 0.574 | 0.546 | 0.448 |
| DLG1 (discs large MAGUK scaffold protein 1) | 0.0619 | 2.37 | 0.207 | -0.0662 | -0.228 |
| DEK (DEK proto-oncogene) | 0.212 | 2.24 | -0.132 | 0.296 | 0.362 |
| NLRP8 (NLR family pyrin domain containing 8) | -0.502 | 2.3 | -0.748 | -0.183 | -0.957 |
| CKM (creatine kinase, M-type) | -0.372 | 3.07 | -0.33 | -0.564 | -0.441 |
| SLC22A5 | -0.341 | 2.07 | -0.226 | -0.42 | -0.203 |

2 entries from above, reformatted.
KCNH2 (potassium voltage-gated channel subfamily H member 2)
- mean correlation with KSR1 profile: 0.111
- mean distance from KSR1 profile: 1.75
- KSR1 correlation, replicate 1: 0.0872
- KSR1 correlation, replicate 2: -0.193
- KSR1 correlation, replicate 3: 0.314

ISOC2 (isochorismatase domain containing 2)
- mean correlation with KSR1 profile: 0.446
- mean distance from KSR1 profile: 2
- KSR1 correlation, replicate 1: 0.594
- KSR1 correlation, replicate 2: 0.618
- KSR1 correlation, replicate 3: 0.184

Continued.
| Gene | mean correlation with KSR1 profile | mean distance from KSR1 profile | KSR1 correlation, replicate 1 | KSR1 correlation, replicate 2 | KSR1 correlation, replicate 3 |
| --- | --- | --- | --- | --- | --- |
| OS9 (OS9 endoplasmic reticulum lectin) | 0.216 | 1.45 | 0.262 | 0.108 | 0.333 |
| SUPT7L (SPT7 like, STAGA complex subunit gamma) | -0.019 | 1.54 | 0.125 | -0.17 | 0.0829 |
| ZNF76 (zinc finger protein 76) | -0.109 | 1.93 | -0.395 | -0.635 | 0.246 |
| C11orf68 (chromosome 11 open reading frame 68) | -0.282 | 2.32 | -0.531 | -0.294 | -0.357 |
| PECAM1 (platelet and endothelial cell adhesion molecule 1) | 0.576 | 0.993 | 0.603 | 0.616 | 0.0292 |
| MEGF9 (multiple EGF like domains 9) | -0.385 | 1.92 | -0.198 | -0.336 | -0.583 |
| GABRR2 (gamma-aminobutyric acid type A receptor subunit rho2) | -0.136 | 2.85 | -0.087 | -0.236 | -0.15 |
